The subject of this data set is tracer antibody. The data set can be described thus: p-BNC bead-based competitive immunoassay for phenytoin and phenobarbital (drug standards).

Molecules are shown by their SMILES.

On to `O=C1NC(=O)C(c2ccccc2)(c2ccccc2)N1` [phenytoin, Phenytoin], for which the limit of detection result (from plot of concentration versus linear profile intensity, FIG. 8A-B, 300 ms exposure) was “about 0.69 ng/mL”. In addition, the “limit of detection (LOD)” value (proof of concept, from plot of concentration and signal intensity, FIG. 5C / FIG. 5E) is recorded as “approximately 10.8 ng/mL”.

Source of the values: patent publication US20150111778A1, “BIO-NANO-CHIP FOR ANTI[…] SALIVARY ASSAY” (WILLIAM MARSH RICE UNIVERSITY, priority 2013, published 2015).
